{"source": "PubChem BioAssay AID720505 (Drosophila RNAi Screening Center, 2013)", "purpose": "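Genes needed for store-operated calcium entry in fly cells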 (primary screen)", "system": "Drosophila S2R+ cells", "reagents": "long dsRNA against Drosophila genes", "conditions": "thapsigargin (2 µM) in calcium-free buffer to empty internal stores, then 2 mM calcium added back", "measured": "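Fluo-4 signal in 384-well plates read on a FLIPR after thapsigargin (2 µM, calcium-free) store depletion and 2 mM calcium add-back; unnormalised mean endpoint per well; screen run twice, selected wells retested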", "reading the numbers": "calcium signal and retest calcium signal: higher = more calcium entry after store depletion", "rule for the call": "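Knock-downs counted as hits when calcium entry dropped relative to STIM1 positive and Rho1 negative controls present on each plate; roughly 1500 genes called, with reductions of differing size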", "calls": "active = called as lowering calcium entry; inactive = not called", "note": "The deposit covers about 20,000 reagents; shown is an unselected part of those that have a named target and a result. Over the whole deposit, about 2,100 (10%) are marked active. 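Raw plate signals without normalisation; calls rest on control-based scores that were not deposited; replicate 2 separates called from uncalled poorly.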 Entries without a mark were called inactive. Reagents against one gene are numbered here. No sequences are given here. Not stated in the record: the amount of reagent, the time to read-out."}
{"predicted target": "niki", "reagent no.": 1, "calcium signal, replicate 1": 134, "calcium signal, replicate 2": 82.7}
{"predicted target": "CG6511", "reagent no.": 1, "calcium signal, replicate 1": 90.2, "calcium signal, replicate 2": 83.3}
{"predicted target": "Ufl1", "reagent no.": 1, "calcium signal, replicate 1": 86.8, "calcium signal, replicate 2": 90.5}
{"predicted target": "E23", "reagent no.": 1, "calcium signal, replicate 1": 85.4, "calcium signal, replicate 2": 128}
{"predicted target": "E23", "reagent no.": 2, "calcium signal, replicate 1": "71.9 (active)", "calcium signal, replicate 2": 130}
{"predicted target": "bib", "reagent no.": 1, "calcium signal, replicate 1": 114, "calcium signal, replicate 2": 88.4}
{"predicted target": "TBC1D23", "reagent no.": 1, "calcium signal, replicate 1": 203, "calcium signal, replicate 2": 143}
{"predicted target": "CG17568", "reagent no.": 1, "calcium signal, replicate 1": 161, "calcium signal, replicate 2": 99.5, "retest calcium signal, replicate 1": 146, "retest calcium signal, replicate 2": 134}
{"predicted target": "Or67b", "reagent no.": 1, "calcium signal, replicate 1": 82.8, "calcium signal, replicate 2": 140}
{"predicted target": "Gycalpha99B", "reagent no.": 1, "calcium signal, replicate 1": "66.2 (active)", "calcium signal, replicate 2": 149}
{"predicted target": "CtsK2", "reagent no.": 1, "calcium signal, replicate 1": 142, "calcium signal, replicate 2": 137}
{"predicted target": "rb", "reagent no.": 1, "calcium signal, replicate 1": 193, "calcium signal, replicate 2": 110}
{"predicted target": "dlt", "reagent no.": 1, "calcium signal, replicate 1": 72.3, "calcium signal, replicate 2": 68.2}
{"predicted target": "Shab", "reagent no.": 1, "calcium signal, replicate 1": 86.9, "calcium signal, replicate 2": 105}
{"predicted target": "Shab", "reagent no.": 2, "calcium signal, replicate 1": 131, "calcium signal, replicate 2": 79.6}

Copied from above (5 entries):
{"predicted target": "E23", "reagent no.": 1, "calcium signal, replicate 1": 85.4, "calcium signal, replicate 2": 128}
{"predicted target": "E23", "reagent no.": 2, "calcium signal, replicate 1": "71.9 (active)", "calcium signal, replicate 2": 130}
{"predicted target": "bib", "reagent no.": 1, "calcium signal, replicate 1": 114, "calcium signal, replicate 2": 88.4}
{"predicted target": "TBC1D23", "reagent no.": 1, "calcium signal, replicate 1": 203, "calcium signal, replicate 2": 143}
{"predicted target": "CG17568", "reagent no.": 1, "calcium signal, replicate 1": 161, "calcium signal, replicate 2": 99.5, "retest calcium signal, replicate 1": 146, "retest calcium signal, replicate 2": 134}

Further entries follow.
{"predicted target": "EMC5", "reagent no.": 1, "calcium signal, replicate 1": 86.9, "calcium signal, replicate 2": 84}
{"predicted target": "CG33136", "reagent no.": 1, "calcium signal, replicate 1": 127, "calcium signal, replicate 2": 95.3}
{"predicted target": "superdeath", "reagent no.": 1, "calcium signal, replicate 1": 96.7, "calcium signal, replicate 2": 143}
{"predicted target": "CG8726", "reagent no.": 1, "calcium signal, replicate 1": 133, "calcium signal, replicate 2": 112}
{"predicted target": "MFS15", "reagent no.": 1, "calcium signal, replicate 1": 97.7, "calcium signal, replicate 2": 83.6}
{"predicted target": "CG32066", "reagent no.": 1, "calcium signal, replicate 1": 77.1, "calcium signal, replicate 2": 95.6}
{"predicted target": "CG32066", "reagent no.": 2, "calcium signal, replicate 1": 82.4, "calcium signal, replicate 2": 70}
{"predicted target": "CG14454", "reagent no.": 1, "calcium signal, replicate 1": 74.5, "calcium signal, replicate 2": 125}
{"predicted target": "l(2)03659", "reagent no.": 1, "calcium signal, replicate 1": 132, "calcium signal, replicate 2": 150}
{"predicted target": "l(2)03659", "reagent no.": 2, "calcium signal, replicate 1": 127, "calcium signal, replicate 2": 159}
{"predicted target": "Nep4", "reagent no.": 1, "calcium signal, replicate 1": 123, "calcium signal, replicate 2": 223}
{"predicted target": "CG9737", "reagent no.": 1, "calcium signal, replicate 1": 128, "calcium signal, replicate 2": 109}
{"predicted target": "CG34007", "reagent no.": 1, "calcium signal, replicate 1": 79.2, "calcium signal, replicate 2": 5196}
{"predicted target": "Snm1", "reagent no.": 1, "calcium signal, replicate 1": 106, "calcium signal, replicate 2": 128}
{"predicted target": "Dark", "reagent no.": 1, "calcium signal, replicate 1": "68.6 (active)", "calcium signal, replicate 2": 122}
{"predicted target": "CG5916", "reagent no.": 1, "calcium signal, replicate 1": 102, "calcium signal, replicate 2": 292}
{"predicted target": "CG11247", "reagent no.": 1, "calcium signal, replicate 1": 100, "calcium signal, replicate 2": 97.4, "retest calcium signal, replicate 1": 187, "retest calcium signal, replicate 2": 144}
{"predicted target": "CG11247", "reagent no.": 2, "calcium signal, replicate 1": 131, "calcium signal, replicate 2": 210}
{"predicted target": "CG32302", "reagent no.": 1, "calcium signal, replicate 1": 69.5, "calcium signal, replicate 2": 119}
{"predicted target": "CG12926", "reagent no.": 1, "calcium signal, replicate 1": 126, "calcium signal, replicate 2": 111, "retest calcium signal, replicate 1": 104, "retest calcium signal, replicate 2": 138}
{"predicted target": "CG12926", "reagent no.": 2, "calcium signal, replicate 1": 106, "calcium signal, replicate 2": 243}
